Data as given in PubChem BioAssay AID504804 (Drosophila RNAi Screening Center, 2011).
Aim: 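Fly genes whose loss lessens doxorubicin-driven cell death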 (primary screen). System: Drosophila Kc cells. Knock-down reagent: long dsRNA against Drosophila genes, 0.5 µg dsRNA per well. Time to read-out: 96 h (48 h knock-down, then 48 h drug). Conditions: doxorubicin 5 µg/ml for 48 h, added 48 h after dsRNA. Measurement: 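Viability measured as cellular ATP by luminescence after 48 h knock-down then 48 h doxorubicin at 5 µg/ml; unnormalised plate counts for each replicate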. Reading the numbers: raw ATP luminescence: higher = more viable cells, protection from doxorubicin. Rule for the call: 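Active when both duplicate wells lie at least 2 SD above the plate mean and protection is confirmed by rescreening and independent dsRNAs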.
In all, the deposit lists about 19,000 reagents; this is an unselected part of those with a known target gene and a result. Of all reagents, 47 (0.25%) got an active call. 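Signals are raw, not normalised; exact z-scores behind calls not deposited; actives needed confirmation, so some wells reaching 2 SD are inactive.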 A number with no mark means an inactive call. Names joined by + are all predicted targets of the reagent.

gene	amplicon	SD above plate mean	raw ATP luminescence, replicate 1	raw ATP luminescence, replicate 2
CG1416	DRSC03706		61243	72177
Rai1 (Rat1 Interacting Protein 1)	DRSC20157		3.38e5	3.09e5
CG12942	DRSC06253		33357	43430
CG3437	DRSC10366		94803	76580
CG7546	DRSC08885		1.49e5	1.73e5
CG7546	DRSC10871		37573	33197
CG5516	DRSC15826		1.00e5	75670
fd96Ca (forkhead domain 96Ca)	DRSC16946		53370	61980
CG6621	DRSC16076		53343	24187
CG8773	DRSC16444		64487	37087
CG13921	DRSC08390		60017	47297
Rca1 (Regulator of cyclin A1)	DRSC03407		78023	55523
Rap1 (Rap1 GTPase)	DRSC08686		74103	67900
IKKepsilon (I-kappaB kinase epsilon)	DRSC03550		52487	60333
orb (oo18 RNA-binding protein)	DRSC17021		13107	15010
Ets65A (Ets at 65A)	DRSC09968		91840	1.01e5
Ets65A (Ets at 65A)	DRSC10738		48723	43233
Ets65A (Ets at 65A)	DRSC11164		48193	52797
CG13654	DRSC14654		77750	61860
CG33771	DRSC11718		1.63e5	1.69e5
Pdzd8 (PDZ domain containing 8)	DRSC19355		3.54e5	3.28e5
CG6324	DRSC19985		3.12e5	2.93e5
CG9877	DRSC04587		68943	73377
Rsph3 (Radial spoke head protein 3)	DRSC09696		37937	36640
Rsph3 (Radial spoke head protein 3)	DRSC10211		76640	95563
CG4853	DRSC06898		69307	69533
CG17593	DRSC00504		23260	23177
vnc + CG42455	DRSC09867	2 to 3 SD above plate mean (active)	61957	61040
CG13408	DRSC13534		1.59e5	1.94e5
CG13408	DRSC14584		51150	60270
jar (jaguar)	DRSC16974		66310	65360
Dph3 (Diphthamide biosynthesis 3)	DRSC14923		56677	51567
Ugt302E1 (UDP-glycosyltransferase family 302 member E1)	DRSC15635		24167	51970
CG11986	DRSC14461		1.01e5	34840
CG16717	DRSC10221		76320	1.42e5
glo (glorund)	DRSC16145		64743	55513
ind (intermediate neuroblasts defective)	DRSC11355		24407	18157
fs(1)Yb (female sterile (1) Yb)	DRSC18777		59140	55300
CG34181	DRSC01071		2.43e5	2.18e5
CG15894	DRSC18098		39960	38810
CG15894	DRSC18099		20090	20080
CG18278 + CG30059	DRSC05418		71833	94270
CG13058	DRSC09941		41513	33073
FucTB (alpha1,3-fucosyltransferase B)	DRSC02745		49290	83773
CG13064	DRSC09947		48250	37033
Btk (Bruton tyrosine kinase)	DRSC02008		47727	75950
Btk (Bruton tyrosine kinase)	DRSC02666		1.09e5	70807
CG10405	DRSC14238		92060	1.17e5
Kdm3 (Lysine demethylase 3)	DRSC16393		60597	55927
CG7246	DRSC18422		1.69e5	2.08e5
CG15882	DRSC19735		3.61e5	2.92e5
CG11600	DRSC14332		56457	54363
Prosalpha4 (Proteasome alpha4 subunit)	DRSC20271		3.07e5	3.15e5
CG4957	DRSC02793		38643	83807
CG7728	DRSC10907		20857	18230
Zir (Zizimin-related)	DRSC00307		1.13e5	76253
Klp59C (Kinesin-like protein at 59C)	DRSC04348		61153	63303
CG7650	DRSC10898		42523	38640
CG32148	DRSC09338		91153	83290
Sec5 (Secretory 5)	DRSC00714		1.07e5	69840
Jarid2 (Jumonji, AT rich interactive domain 2)	DRSC10372		38883	30327
CG16812	DRSC02519		99677	69593
Mlh1	DRSC07473		69030	52713
Wnk (Wnk kinase)	DRSC11813		45897	51023
oxt (peptide O-xylosyltransferase)	DRSC08522		54930	65250
ND-23 (NADH dehydrogenase (ubiquinone) 23 kDa subunit)	DRSC15526		39117	36720
Magi	DRSC04247		64887	66983
Magi	DRSC04451		24700	32830
dind (diamond)	DRSC16294		78253	56890
Antp (Antennapedia)	DRSC12490		31610	19157
CG7091	DRSC12944		1.90e5	1.66e5
CG7091	DRSC16197		1.05e5	65860
mi (minus)	DRSC04498		84433	51647
Bgb	DRSC08148		61770	66677
CG16964	DRSC02546		44263	76257
nahoda	DRSC03954		71353	58823
nahoda	DRSC04126		74077	88933
Ufsp1 (UFM1 specific peptidase 1)	DRSC04958		1.02e5	94883
tHMG1 (testis-enriched HMG-box-containing protein 1)	DRSC16181		43220	45290
CG17994	DRSC04877		54637	69337
mre11 (meiotic recombination 11)	DRSC03570		1.08e5	1.07e5
Glyp (Glycogen phosphorylase)	DRSC00752		1.27e5	1.21e5
Hsepi (Heparan sulfate C5-epimerase)	DRSC04986		56027	62160
lt (light)	DRSC03759		71340	74373

Reformatted: 14 of the entries above
gene,amplicon,SD above plate mean,"raw ATP luminescence, replicate 1","raw ATP luminescence, replicate 2"
CG6324,DRSC19985,,3.12e5,2.93e5
CG9877,DRSC04587,,68943,73377
Rsph3 (Radial spoke head protein 3),DRSC09696,,37937,36640
Rsph3 (Radial spoke head protein 3),DRSC10211,,76640,95563
CG4853,DRSC06898,,69307,69533
CG17593,DRSC00504,,23260,23177
vnc + CG42455,DRSC09867,2 to 3 SD above plate mean (active),61957,61040
CG13408,DRSC13534,,1.59e5,1.94e5
CG13408,DRSC14584,,51150,60270
jar (jaguar),DRSC16974,,66310,65360
Dph3 (Diphthamide biosynthesis 3),DRSC14923,,56677,51567
Ugt302E1 (UDP-glycosyltransferase family 302 member E1),DRSC15635,,24167,51970
CG11986,DRSC14461,,1.01e5,34840
CG16717,DRSC10221,,76320,1.42e5
